Test results taken from article PMC6760441, “Structural insights into stressosome assembly” (IUCrJ, 2019).
Substitutions are numbered along the chain they refer to. Names may count otherwise. Results are given in words; binding and its absence hold for the method and conditions named. In cells and extracts the contact can be indirect. Some results given as binding are weak or reduced against the parent protein; the word gives no strength. Where a sequence is shown, tags or fusion partners need not be part of it.

T1: His-GST-RsbS (Bacillus subtilis strain 168) (UniProt P42410)
T1 sequence: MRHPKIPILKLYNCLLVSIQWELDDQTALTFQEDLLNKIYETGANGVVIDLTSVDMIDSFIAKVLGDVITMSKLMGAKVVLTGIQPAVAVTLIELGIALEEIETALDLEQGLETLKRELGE

B1: RsbRA Q236A (protein, UniProt P42409 1-274)
chain: MMSNQTVYQFIAENQNELLQLWTDTLKELSEQESYQLTDQVYENISKEYIDILLLSVKDENAAESQISELALRAVQIGLSMKFLATALAEFWKRLYTKMNDKRLPDQESTELIWQIDRFFSPINTEIFNQYSISWEKTVSLQKIALQELSAPLIPVFENITVMPLVGTIDTERAKRIMENLLNGVVKHRSQVVLIDITGVPVVDTMVAHHIIQASEAVRLVGAKCLLAGIRPEIAATIVNLGIDLSQVITKNTLQKGIQTALEMTDRKIVSLGE
B2: RsbRA (Bacillus subtilis), full length, residues 1-274, native (pET-22b), of the RsbRA-RsbS complex (natural protein, Bacillus subtilis strain 168, UniProt P42409 1-274, looked up)
chain: B1 chain with A236Q
notes: RsbRA, Bacillus subtilis strain 168 (ATCC 23857), full length, residues 1-274; N-terminal nonheme globin domain and C-terminal STAS domain; also called native RsbRA; source: E. coli BL21 Star (DE3), co-purified with 6xHis-thioredoxin-RsbS (IMAC, TEV cleavage, SEC)
B3: RsbRA N252A (protein, UniProt P42409 1-274)
chain: B1 chain with A236Q, N252A
B4: RsbRA Q236A/N252A (protein, UniProt P42409 1-274)
chain: B1 chain with N252A

Target: T1, His-GST-RsbS (Bacillus subtilis strain 168)
Assay: pull-down; clarified E. coli lysates with His-GST-RsbS and with RsbRA (native or mutant) mixed, loaded onto GST Sepharose, washed with 20 mM HEPES pH 7.5, 0.2 M NaCl, 5% glycerol; eluted with SDS sample buffer, SDS-PAGE

binding, binds:
B1
B2
B3
B4
